From publication PMC4942676
Results are given in words; binding and its absence hold for the method and conditions named. In cells and extracts the contact can be indirect. Some entries that bind do so weakly or less than the wild type.

By UniProt entry, the sequences of proteins in these tests, tags left out. Residues count along the entry.
UniProt Q9UMX0: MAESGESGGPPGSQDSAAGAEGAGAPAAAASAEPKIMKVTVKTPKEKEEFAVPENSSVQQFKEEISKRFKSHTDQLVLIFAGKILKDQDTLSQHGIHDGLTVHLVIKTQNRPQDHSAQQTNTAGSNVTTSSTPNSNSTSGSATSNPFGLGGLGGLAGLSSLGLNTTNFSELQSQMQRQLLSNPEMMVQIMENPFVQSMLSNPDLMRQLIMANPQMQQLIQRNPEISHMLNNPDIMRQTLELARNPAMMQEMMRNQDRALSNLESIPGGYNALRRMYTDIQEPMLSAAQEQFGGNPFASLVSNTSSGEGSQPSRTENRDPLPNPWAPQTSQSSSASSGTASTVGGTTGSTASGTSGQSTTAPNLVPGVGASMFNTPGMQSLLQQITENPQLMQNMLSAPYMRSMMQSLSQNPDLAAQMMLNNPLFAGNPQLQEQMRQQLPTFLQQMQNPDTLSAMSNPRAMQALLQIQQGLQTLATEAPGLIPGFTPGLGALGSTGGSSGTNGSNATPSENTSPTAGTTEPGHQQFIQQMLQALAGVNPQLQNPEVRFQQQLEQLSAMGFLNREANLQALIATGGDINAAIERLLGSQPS
UniProt P05496, residues 62-136: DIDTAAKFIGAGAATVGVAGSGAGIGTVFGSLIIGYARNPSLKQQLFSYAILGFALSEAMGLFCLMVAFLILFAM

Molecular target: Myc-UBQLN1 in rescue cells (UniProt Q9UMX0)
Assay: co-IP; detergent-free cytosolic lysates of rescue cells pulse-labeled 30 min with 35S-methionine; Myc-UBQLN1 immunoprecipitated, ATP5G1-HA released with detergent; autoradiography

In the case of ATP5G1-HA (from UniProt P05496 62-136), the binding is reported as “binds”.
